Data on one substance can be found in paper PMC7615972.

Chains of the proteins cited; added tags and fusions are not shown. Residues count along the entry.
UniProt Q6PDJ1, residues 50-1109: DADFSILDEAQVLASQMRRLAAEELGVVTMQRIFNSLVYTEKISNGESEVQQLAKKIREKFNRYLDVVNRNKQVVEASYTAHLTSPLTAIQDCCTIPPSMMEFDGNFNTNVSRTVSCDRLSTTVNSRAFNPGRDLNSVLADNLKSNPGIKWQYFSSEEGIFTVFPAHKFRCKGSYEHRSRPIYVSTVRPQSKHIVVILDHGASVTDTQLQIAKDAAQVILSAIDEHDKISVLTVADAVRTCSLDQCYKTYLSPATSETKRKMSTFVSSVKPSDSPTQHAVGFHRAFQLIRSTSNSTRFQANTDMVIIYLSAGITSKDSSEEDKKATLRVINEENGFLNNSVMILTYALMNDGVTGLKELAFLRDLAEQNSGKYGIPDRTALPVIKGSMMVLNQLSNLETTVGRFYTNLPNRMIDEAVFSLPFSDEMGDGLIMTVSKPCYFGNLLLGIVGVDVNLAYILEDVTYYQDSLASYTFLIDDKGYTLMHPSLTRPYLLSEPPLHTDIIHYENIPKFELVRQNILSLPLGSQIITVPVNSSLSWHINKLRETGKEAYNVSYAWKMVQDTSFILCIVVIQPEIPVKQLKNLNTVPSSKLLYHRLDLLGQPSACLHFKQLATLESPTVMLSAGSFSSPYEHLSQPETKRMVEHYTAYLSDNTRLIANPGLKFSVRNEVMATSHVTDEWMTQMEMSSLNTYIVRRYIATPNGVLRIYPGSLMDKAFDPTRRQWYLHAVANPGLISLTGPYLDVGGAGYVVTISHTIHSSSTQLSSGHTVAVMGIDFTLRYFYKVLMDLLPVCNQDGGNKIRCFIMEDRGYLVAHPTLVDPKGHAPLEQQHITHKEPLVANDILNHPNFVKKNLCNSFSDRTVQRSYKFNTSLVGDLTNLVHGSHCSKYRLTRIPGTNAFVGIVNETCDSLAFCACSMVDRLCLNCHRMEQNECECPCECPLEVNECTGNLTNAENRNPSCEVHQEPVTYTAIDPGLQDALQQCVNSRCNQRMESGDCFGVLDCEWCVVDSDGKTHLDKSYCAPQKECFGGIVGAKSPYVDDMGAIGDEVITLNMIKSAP

In experiment [1] the target is T1, mouse FZD5 cysteine-rich domain (FZD5CRD) (mouse) (UniProt Q9EQD0).
T1 sequence: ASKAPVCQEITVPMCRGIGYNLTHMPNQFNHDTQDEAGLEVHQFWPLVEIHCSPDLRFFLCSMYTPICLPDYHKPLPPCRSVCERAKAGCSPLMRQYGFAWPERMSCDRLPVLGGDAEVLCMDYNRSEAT
Briefly: crystal structure; cocrystallization of CACHD1ECD with FZD5CRD and LRP6_(P3E3P4E4); 4.7 Å; molecular replacement; three ternary complexes in the asymmetric unit; both purified.

Experiment [2] deals with T2, human LRP6 membrane proximal fragment (LRP6_(P3E3P4E4)) (human) (UniProt O75581).
T2 sequence: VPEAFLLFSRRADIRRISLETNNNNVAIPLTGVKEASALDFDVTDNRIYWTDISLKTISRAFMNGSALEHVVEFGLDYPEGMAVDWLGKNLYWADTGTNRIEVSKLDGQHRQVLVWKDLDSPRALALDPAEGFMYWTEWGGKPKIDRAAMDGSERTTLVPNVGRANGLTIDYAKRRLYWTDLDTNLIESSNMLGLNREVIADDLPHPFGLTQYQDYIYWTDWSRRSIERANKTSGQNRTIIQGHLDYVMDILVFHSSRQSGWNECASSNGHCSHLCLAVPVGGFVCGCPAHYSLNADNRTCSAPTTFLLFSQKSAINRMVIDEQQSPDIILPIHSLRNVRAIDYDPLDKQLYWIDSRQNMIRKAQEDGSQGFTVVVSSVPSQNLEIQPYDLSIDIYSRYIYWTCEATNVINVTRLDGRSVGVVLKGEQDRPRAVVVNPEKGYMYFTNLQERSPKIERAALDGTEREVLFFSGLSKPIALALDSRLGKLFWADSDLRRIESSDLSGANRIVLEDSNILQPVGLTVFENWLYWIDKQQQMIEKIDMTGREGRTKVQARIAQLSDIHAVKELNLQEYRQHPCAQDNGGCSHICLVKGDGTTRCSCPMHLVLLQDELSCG
The description is as above.

Results are given in words; binding and its absence hold for the method and conditions named. Some results given as binding are weak or reduced against the parent protein; the word gives no strength.

For “purified mouse CACHD1 extracellular domain (CACHD1ECD) (from UniProt Q6PDJ1 50-1109) (domain or fragment)”, the binding result in experiment [1] and in experiment [2] was “binds” in each case.
